Laboratory results: patent US20240083853A1, “HSD17B13 INHIBITORS AND USES THEREOF” (FL2022-001, Inc., priority 2020, published 2024)

Amino acid sequences for entries named in this document (tags omitted). Residues count along the entry.
UniProt Q7Z5P4, 20-300 limits assumed: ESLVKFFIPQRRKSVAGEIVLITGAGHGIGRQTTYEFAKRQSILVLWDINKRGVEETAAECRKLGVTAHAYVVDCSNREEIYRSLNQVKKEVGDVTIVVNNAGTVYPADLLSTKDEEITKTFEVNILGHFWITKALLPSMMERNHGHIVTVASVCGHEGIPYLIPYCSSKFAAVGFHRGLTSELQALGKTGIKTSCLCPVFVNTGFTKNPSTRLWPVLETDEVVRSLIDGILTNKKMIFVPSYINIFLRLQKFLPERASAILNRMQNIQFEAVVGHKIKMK

Biological target: Recombinant human HSD17B13 enzyme (Homo sapiens, UniProt Q7Z5P4)
Experiment: HSD17b13 NAD(P)H-Glo biochemical assay
Conditions: read-out: HSD17β13 IC50; 50 uM estradiol, 1 mM NAD+, NAD(P)H-Glo luminescence
Description: Example B-1: HSD17b13 NAD(P)H-Glo Biochemical Assay
Recombinant human HSD17B13 enzyme. Substrate: estradiol (Sigma β-Estradiol E8875), 100 mM in DMSO. Cofactor: NAD+ Grade I free acid (Sigma 10127965001), 20 mM in H2O. Assay buffer final concentration: 20 mM Tris pH7.4 with 0.002% Tween-20 and 0.02% BSA. Assay performed in 384 well solid bottom plate (Corning 3570). Enzymatic activity detected by NAD(P)H-Glo™ Detection System (Promega G9062).
Inhibitor compounds were serially diluted in DMSO and then further diluted in assay buffer to a 10× concentration consisting of 1% DMSO.
HSD17b13 enzyme was diluted in 1× assay buffer to the desired enzyme concentration based on the specific activity of the enzyme lot. 20 uL of diluted enzyme was added to each well along with 2.5 uL of 10× inhibitor solution. Assay plate was incubated at RT for 20 minutes, and then 2.5 uL of a 10× substrate/cofactor mix was added to each well for a final concentration of 50 uM estradiol and 1 mM NAD+. Assay plate was incubated at 37° C. for 3 hours. NAD(P)H-Glo™ Detection System reagents were prepared according to manufacturer's specifications, and 25 uL was added to each well. After incubating for 1 hour at RT, luminescence was measured.

Compound Oc1c(F)cc2cnn(-c3ccc(N4CC5(COC5)C4)cc3)c2c1F has an IC50 of 100 to 1000 nM.

Structures were worked out from names or drawings and are uncertain.
